Assay results reported in PMC6053357.
These are yes or no findings as the source states them, for the method shown. In cells and extracts the contact can be indirect. Some results given as binding are weak or reduced against the parent protein; the word gives no strength.

Protein sequences, listed by entry. Tags and fused reporters are not part of them. Residues count along the entry.
UniProt O75581, residues 20-1613: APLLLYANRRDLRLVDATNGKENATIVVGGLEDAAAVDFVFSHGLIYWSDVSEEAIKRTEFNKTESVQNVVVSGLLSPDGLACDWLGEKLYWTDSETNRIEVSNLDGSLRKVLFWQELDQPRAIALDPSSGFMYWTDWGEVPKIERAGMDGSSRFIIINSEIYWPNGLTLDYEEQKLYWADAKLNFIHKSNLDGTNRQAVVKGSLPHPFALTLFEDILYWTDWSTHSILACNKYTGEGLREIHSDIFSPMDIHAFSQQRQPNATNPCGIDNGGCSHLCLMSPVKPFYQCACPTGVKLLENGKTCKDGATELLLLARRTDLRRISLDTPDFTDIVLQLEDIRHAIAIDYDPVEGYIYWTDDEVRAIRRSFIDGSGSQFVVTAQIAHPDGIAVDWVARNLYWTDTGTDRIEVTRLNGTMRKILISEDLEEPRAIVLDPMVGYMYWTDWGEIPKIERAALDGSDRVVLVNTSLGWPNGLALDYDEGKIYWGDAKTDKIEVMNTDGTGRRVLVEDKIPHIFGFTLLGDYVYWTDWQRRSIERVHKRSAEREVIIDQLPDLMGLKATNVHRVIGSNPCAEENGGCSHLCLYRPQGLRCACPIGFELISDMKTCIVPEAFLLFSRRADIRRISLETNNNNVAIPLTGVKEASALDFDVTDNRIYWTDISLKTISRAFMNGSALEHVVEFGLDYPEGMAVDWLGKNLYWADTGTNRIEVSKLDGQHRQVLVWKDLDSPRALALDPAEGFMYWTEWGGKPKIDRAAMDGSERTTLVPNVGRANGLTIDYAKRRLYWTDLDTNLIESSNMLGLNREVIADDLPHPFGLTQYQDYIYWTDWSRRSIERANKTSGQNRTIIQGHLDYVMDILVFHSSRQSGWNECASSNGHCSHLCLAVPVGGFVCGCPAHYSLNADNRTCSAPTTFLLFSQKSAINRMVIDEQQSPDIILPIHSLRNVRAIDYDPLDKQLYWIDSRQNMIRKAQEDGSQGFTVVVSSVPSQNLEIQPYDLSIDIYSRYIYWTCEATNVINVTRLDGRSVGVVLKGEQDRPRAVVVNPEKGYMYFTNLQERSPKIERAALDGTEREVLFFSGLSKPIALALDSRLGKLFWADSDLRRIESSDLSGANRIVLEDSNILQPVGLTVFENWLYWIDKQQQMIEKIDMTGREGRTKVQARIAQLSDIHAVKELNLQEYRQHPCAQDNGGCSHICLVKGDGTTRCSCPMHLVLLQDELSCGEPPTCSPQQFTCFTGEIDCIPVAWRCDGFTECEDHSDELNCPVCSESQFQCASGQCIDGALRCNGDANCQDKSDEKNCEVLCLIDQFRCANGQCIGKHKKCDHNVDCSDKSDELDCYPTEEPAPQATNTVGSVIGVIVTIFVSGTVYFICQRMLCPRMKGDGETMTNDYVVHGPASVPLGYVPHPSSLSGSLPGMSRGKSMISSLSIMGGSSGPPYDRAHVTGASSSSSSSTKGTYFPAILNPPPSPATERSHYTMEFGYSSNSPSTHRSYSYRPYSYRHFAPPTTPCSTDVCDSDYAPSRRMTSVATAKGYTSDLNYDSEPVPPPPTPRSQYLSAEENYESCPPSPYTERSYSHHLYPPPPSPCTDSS
UniProt P58335, residues 34-489: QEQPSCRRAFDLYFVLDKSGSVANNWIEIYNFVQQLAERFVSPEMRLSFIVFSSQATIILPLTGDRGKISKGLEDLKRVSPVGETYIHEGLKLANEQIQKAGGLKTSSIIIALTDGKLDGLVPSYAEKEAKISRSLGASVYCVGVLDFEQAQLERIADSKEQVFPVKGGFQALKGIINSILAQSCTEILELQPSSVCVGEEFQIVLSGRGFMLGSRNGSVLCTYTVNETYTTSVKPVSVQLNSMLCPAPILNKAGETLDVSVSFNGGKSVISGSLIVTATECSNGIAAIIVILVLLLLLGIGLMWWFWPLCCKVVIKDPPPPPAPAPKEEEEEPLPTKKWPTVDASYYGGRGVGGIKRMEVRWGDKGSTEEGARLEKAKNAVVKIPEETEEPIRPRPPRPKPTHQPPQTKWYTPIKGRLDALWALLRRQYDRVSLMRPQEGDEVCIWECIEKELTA

Target: low-density lipoprotein receptor 6 (human (endogenous in GC cells)) (UniProt O75581)
Assay: co-IP; Pierce Co-IP kit; 10 μg anti-CMG2 or anti-LRP6 antibody (and matched IgG) immobilised on AminoLink Plus coupling resin, incubated with 250 μg GC cell lysate at 4 °C overnight; western blot

“capillary morphogenesis gene 2 (from UniProt P58335 34-489) (receptor)” was tested, and the binding was “binds”.
